Reference: PubChem BioAssay AID2685 (National Center for Advancing Translational Sciences (NCATS), 2010)
Some of the results follow. Shown are side measurements of this screen, not its main read-out; they come without a call. Most of these compounds were active or inconclusive in the main read-out, so they are no random draw. Potencies come from curve fits of mixed quality, noted in brackets.

Assay: qHTS Assay for Lipid Storage Modulators in Drosophila S3 Cells;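 as to cell number change: cells counted by Cell Tracker Red CMTPX staining in the red channel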
Conditions: BODIPY lipid droplet fluorescence, 18-24 h; for cell number change: measured here: cell count max response, cells fed with added oleic acid
How it was run: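 Drosophila S3 cells got compounds at several concentrations plus oleic acid (400 uM solution). Laser-scanning cytometry with 488 nm excitation read lipid droplets at 500-530 nm and cells at 575-640 nm. Percent activity was relative to 20 uM Triacsin C.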

[1] = measured here: cell number channel AC50, cells fed with added oleic acid
[2] = measured here: lipid fluorescence (Fed channel) AC50, cells fed with added oleic acid

Structure (SMILES)	cell number change [%]	AC50 [1]	AC50 [2]
CN(Cc1ccccc1)C(=O)c1ccc(NC(=O)Cc2cccc(NC(=O)C3CCCN(C(=O)CCc4ccccc4)C3)c2)cc1 (stereo unspecified)	-39.2	14.6 µM [falling, single point]	7.31 µM [falling, single point]
COc1ccccc1NC(=O)CCSc1nc(C)cs1	-0.552		0.103 µM [rising, full curve, poor fit]
Cc1ccc(CC2S/C(=N/N=C/c3ccco3)NC2=O)cc1 (stereo unspecified)	-102	29.1 µM [falling, partial curve, poor fit]	29.1 µM [falling, single point]
CCOC(=O)/C(C#N)=C/c1cc2ccccc2nc1N1CCOCC1	-2.73		1.16 µM [falling, full curve, poor fit]
COc1ccc(C)cc1NC(=O)C1CCN(S(=O)(=O)c2ccccc2)CC1	-22.9		3.26 µM [falling, full curve]
CCNC(=S)Nc1ccc(OCc2nc3ccccc3s2)cc1	-9.12		29.1 µM [falling, single point]
Cc1ccc(Cn2c(=N)c(S(=O)(=O)c3ccc(C)cc3)cc3c(=O)n4ccccc4nc32)cc1	-3.4	0.82 µM [falling, partial curve]	
S=C(NCCN1CCOCC1)Nc1ccc(-c2nc3ccccc3[nH]2)cc1	62.2	16.4 µM [rising, single point]	
Cn1c(N)c(C(=O)CSc2nc(C3CC3)n(-c3ccccc3)n2)c(=O)n(C)c1=O	-9.34		4.11 µM [falling, partial curve, poor fit]
O=c1c2cc(Br)ccc2[nH]c(=S)n1Cc1ccccn1	10.9		0.164 µM [falling, partial curve, poor fit]
CN(C)C(=O)Oc1ccc[n+](C)c1	3.52		1.64 µM [falling, partial curve]
NC(=O)c1ccsc1NC(=O)COC(=O)c1ccncc1	-17.5	0.461 µM [falling, partial curve, poor fit]	
O=C(O)c1ccc(NC(=S)NC(=O)c2ccc3ccccc3c2)cc1	8.19		0.00461 µM [rising, full curve, poor fit]
O=S(=O)(NCC(c1ccc2c(c1)OCO2)N1CCOCC1)c1ccccc1 (stereo unspecified)	112	29.1 µM [rising, single point]	8.2 µM [rising, partial curve, poor fit]
CCCn1c(N)c(N(CCOC)C(=O)CSCC(=O)Nc2ccc(OC)cc2)c(=O)[nH]c1=O	2.94	6.51 µM [falling, single point]	6.51 µM [falling, single point]
COc1c(N)c2ccccc2[nH]c1=O			4.11 µM [falling, partial curve, poor fit]
O=C(CN1C(=O)CCS(=O)(=O)c2ccccc21)NCCc1ccccc1	11		0.651 µM [rising, single point]
O=C(CCc1ccccc1)Nc1cc2c(cc1Cl)OCCO2	-3.17		8.2 µM [rising, partial curve]
CCOc1ccc(C(C(=O)Nc2ccc(F)cc2)N(C(=O)Cn2nnc3ccccc32)C2CC2)cc1 (stereo unspecified)	6.32		0.00517 µM [rising, full curve, poor fit]
CCn1c2ccccc2c2cc(NC(=O)Cc3ccc(S(=O)(=O)N4CCOCC4)s3)ccc21	-41.4	29.1 µM [falling, single point]	29.1 µM [falling, single point]
CC(C)N(Cc1nccn1C)C(=O)c1cc(COc2ccc3ncccc3c2)on1	-19.7		16.4 µM [falling, single point]
CCN(CC)c1ccc2ccc(=O)oc2c1	1.45		4.11 µM [rising, partial curve, poor fit]
CC1(C)Cc2c(sc3c2C2=NCCN2C=N3)CO1	7.51		
CCN(Cc1nc2ccccc2c(=O)[nH]1)C(=O)COc1ccccc1-c1ccccc1	30		23.1 µM [rising, partial curve, poor fit]
O=S(=O)(NCc1ccc(F)cc1)c1ccc(Br)cc1Br	-46.9	14.6 µM [falling, partial curve, poor fit]	0.184 µM [rising, full curve, poor fit]
c1ccc(Oc2cccc(CN3CCCCC3)c2)cc1	-15.6		0.461 µM [falling, full curve]
O=C(CN1C(=O)CCC1=O)Nc1ccc(Cc2ccc(NC(=O)CN3C(=O)CCC3=O)cc2)cc1	6.18	6.51 µM [rising, single point]	
O=C(Nc1ccc(Cl)cn1)c1ccccc1SCc1ccccc1	-26.1		29.1 µM [falling, single point]

A draw from above in order of molecular weight, ascending.
Structure (SMILES)	cell number change [%]	AC50 [1]	AC50 [2]
CCOC(=O)/C(C#N)=C/c1cc2ccccc2nc1N1CCOCC1	-2.73		1.16 µM [falling, full curve, poor fit]
O=c1c2cc(Br)ccc2[nH]c(=S)n1Cc1ccccn1	10.9		0.164 µM [falling, partial curve, poor fit]
S=C(NCCN1CCOCC1)Nc1ccc(-c2nc3ccccc3[nH]2)cc1	62.2	16.4 µM [rising, single point]	

Further entries follow.

Structure (SMILES)	cell number change [%]	AC50 [1]	AC50 [2]
O=C(CCc1nnc(CCCc2ccccc2)o1)N1CCCCCC1			29.1 µM [falling, single point]
CN1CCN(CCCNC(=O)c2cc3c(=O)n(C)c4ccccc4c3s2)CC1	-6.73		0.411 µM [rising, full curve, poor fit]
O=C(Nc1cccc(NC(=O)c2ccccc2F)c1)c1ccccc1	33.8	29.1 µM [rising, single point]	
Cc1cccc(-n2ccnc2CN2CCC(CO)(Cc3ccccc3)CC2)c1	16.3		29.1 µM [rising, single point]
Cn1c(=O)c(=O)n(C)c2cc(S(=O)(=O)N3CCN(c4ccc(F)cc4)CC3)ccc21	42.1	23.1 µM [rising, single point]	16.4 µM [rising, single point]
Cc1ccc(S(=O)(=O)N2CCOCC2)cc1NC(=O)CSc1nnc2cc(C)c3ccccc3n12	-19.5	0.092 µM [rising, full curve, poor fit]	
CNS(=O)(=O)c1cccc(C(=O)OCC(=O)Nc2ccc(Cl)cc2F)c1	-8.96		0.58 µM [falling, single point]
CCCOc1ccc(/C=C/C(=O)O)cc1OC	-11	0.82 µM [falling, full curve, poor fit]	
COC(=O)N/N=C/c1ccc(-c2cc(Cl)cc(Cl)c2)o1	-22		29.1 µM [rising, single point]
O=C(N1CCOCC1)N1CCN(c2nc(-c3ccc(F)cc3)cs2)CC1	1.36		20.6 µM [rising, single point]
CCc1nnc(NC(=O)c2ccc(S(=O)(=O)N(CC(C)C)CC(C)C)cc2)o1	-39.5	16.4 µM [falling, partial curve]	16.4 µM [falling, partial curve]
Cc1ccc(CN(C)CC(=O)Nc2ccccc2C(=O)NC2CC2)o1	1.07		25.9 µM [rising, single point]
CC(C)OCc1ccc(C(=O)N2CCN(S(=O)(=O)c3ccc(Br)s3)CC2)cc1	-15.6		29.1 µM [falling, single point]
CCOC(=O)N1CCC(NC(=O)c2cc3c(-c4ccc(OC)c(OC)c4)nn(C)c3s2)CC1	-17.6	3.26 µM [falling, single point]	
CCOC(=O)N1CCN(c2nc3ccccn3c(=O)c2C=O)CC1	-11.1		29.1 µM [rising, single point]
Cc1cc(C)nc(N=Nc2c(O)n(Cc3ccc(Cl)cc3)c3ccccc23)n1	-79.8	20.6 µM [falling, partial curve]	5.8 µM [falling, full curve]
Cc1noc(C)c1C(=O)Nc1cccc(S(=O)(=O)N2CCCCC2)c1	-0.129		13 µM [falling, partial curve, poor fit]
O=C(C1CCC1)N1CCCc2cc(S(=O)(=O)N3CCN(c4ccccc4)CC3)ccc21			2.31 µM [falling, partial curve]
CCOCCCNC(=O)/C(C#N)=C/c1ccccc1F	-32.3	29.1 µM [falling, single point]	20.6 µM [falling, single point]
CCN(CC)c1ccc2cc(C=O)c(=O)oc2c1	158	23.1 µM [rising, single point]	0.651 µM [rising, full curve]
Cn1c(=O)oc2cc(S(=O)(=O)NC3CCCc4ccccc43)ccc21 (stereo unspecified)			18.4 µM [rising, single point]
CCn1cc(S(=O)(=O)Nc2cc(C(=O)OC)ccc2C)cn1	33.6	14.6 µM [rising, partial curve, poor fit]	
COc1ccc(CNC(=S)NC2CCCCC2)cc1			29.1 µM [falling, single point]
CC(=O)c1cccc(N(CC(=O)NC2CCCCC2)C(=O)c2csnn2)c1	-18.1	0.731 µM [falling, full curve, poor fit]	
O=C(CN1C(=O)S/C(=C\c2ccc(C(=O)O)cc2)C1=O)Nc1ccccc1	16.4		25.9 µM [rising, partial curve, poor fit]
C=CCn1c(CCNC(=O)c2cccs2)nnc1SCC(=O)Nc1cccc(Cl)c1C	-19.3		20.6 µM [falling, single point]
Cc1cc(C)n(C2=NS(=O)(=O)c3ccccc32)n1	-25.1	2.06 µM [falling, partial curve, poor fit]	4.61 µM [falling, full curve]
